Data source: PubChem BioAssay AID504744 (Drosophila RNAi Screening Center, 2011)

- Aim: 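Uncover factors, including feedback loops, that control dAkt activation in fly cells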 (primary screen)
- Cell system: Drosophila Kc167 cells
- Reagents: long dsRNA against Drosophila genes, 250 ng dsRNA per well of a 384-well plate
- Time to read-out: 3 days of knock-down, then overnight serum-free starvation before stimulation
- Challenge: bovine insulin at 387 nM for 10 minutes after 12 h without serum
- Measured: 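In-cell antibody fluorescence for phospho-dAkt in each well over DNA-dye signal, with log2 residuals expressed as z-scores adjusted for cell count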
- Hit rule: 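Under insulin, a gene counts as a hit if the average z-score of two replicates lies above 2.5 or below -2.5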
The deposit covers about 23,000 reagents; below is a random part of those with a known target gene and a result. In the full data, 98 (0.43%) were called active. 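Only hit calls are given; the phospho-dAkt signals, z-scores and hit direction were not deposited.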 Names joined by + are all predicted targets of the reagent.

| Gene | DRSC id | Call |
| --- | --- | --- |
| CR31824 | DRSC01517 | inactive |
| CG33978 | DRSC17106 | inactive |
| r | DRSC19813 | inactive |
| r | DRSC19814 | inactive |
| CG31883 | DRSC02561 | inactive |
| CG15253 | DRSC01871 | inactive |
| RpL26 | DRSC10726 | inactive |
| APC7 | DRSC17937 | inactive |
| Acp36DE | DRSC01860 | inactive |
| CG14417 | DRSC18638 | inactive |
| Rsph4a | DRSC04338 | inactive |
| CG12147 | DRSC12192 | inactive |
| Ack-like | DRSC07500 | inactive |
| LeuRS-m | DRSC08595 | inactive |
| CG13896 | DRSC08366 | inactive |
| Drsl5 | DRSC08159 | inactive |
| Nrx-1 | DRSC16184 | inactive |
| Rab11 | DRSC16809 | inactive |
| Fatp2 | DRSC03971 | inactive |
| Fatp2 | DRSC04178 | inactive |
| Fatp2 | DRSC04330 | inactive |
| Or49a | DRSC07493 | inactive |
| CG4074 | DRSC11752 | inactive |
| Su(var)2-HP2 | DRSC06204 | inactive |
| CG32032 | DRSC08961 | inactive |
| Fas3 | DRSC01638 | inactive |
| Fas3 | DRSC03326 | inactive |
| Fas3 | DRSC22776 | inactive |
| CG11523 | DRSC11669 | inactive |
| CG17567 (retired record) | DRSC02627 | inactive |
| CG17567 (retired record) | DRSC22537 | inactive |
| CG11836 | DRSC14396 | inactive |
| CG15930 | DRSC18107 | inactive |
| Tango8 | DRSC06474 | inactive |
| ReepA | DRSC04572 | inactive |
| ReepA | DRSC22475 | inactive |

Part of the list above, set out differently.
LeuRS-m [DRSC08595] — Call: inactive
CG13896 [DRSC08366] — Call: inactive
Drsl5 [DRSC08159] — Call: inactive
Nrx-1 [DRSC16184] — Call: inactive
Rab11 [DRSC16809] — Call: inactive
Fatp2 [DRSC03971] — Call: inactive
Fatp2 [DRSC04178] — Call: inactive
Fatp2 [DRSC04330] — Call: inactive
Or49a [DRSC07493] — Call: inactive
CG4074 [DRSC11752] — Call: inactive
Su(var)2-HP2 [DRSC06204] — Call: inactive
CG32032 [DRSC08961] — Call: inactive
Fas3 [DRSC01638] — Call: inactive
Fas3 [DRSC03326] — Call: inactive
Fas3 [DRSC22776] — Call: inactive
CG11523 [DRSC11669] — Call: inactive
CG17567 (retired record) [DRSC02627] — Call: inactive

Next records follow:
| Gene | DRSC id | Call |
| --- | --- | --- |
| CG31206 | DRSC13388 | inactive |
| Gr85a | DRSC12760 | inactive |
| CG12539 | DRSC19470 | inactive |
| CG12637 | DRSC17845 | inactive |
| CG5196 | DRSC15735 | inactive |
| Delta | DRSC16648 | inactive |
| mof | DRSC18795 | inactive |
| CG17207 | DRSC15198 | inactive |
| CG6839 | DRSC10723 | inactive |
| CG12502 | DRSC08281 | inactive |
| Strump | DRSC09872 | inactive |
| CR11235 | DRSC20480 | inactive |
| PolG1 | DRSC03621 | inactive |
| MFS1 | DRSC04115 | inactive |
| mtsh | DRSC03070 | inactive |
| CG14692 | DRSC14915 | inactive |
| Cyt-c1L | DRSC14860 | inactive |
| Cyt-c1L | DRSC22096 | inactive |
| xit | DRSC18364 | inactive |
| CG7840 | DRSC03075 | inactive |
| CG15043 | DRSC19619 | inactive |
| CG11475 | DRSC04113 | inactive |
| BEAF-32 | DRSC05927 | inactive |
| Tpr2 | DRSC03461 | inactive |
| RpL32 | DRSC16835 | inactive |
| Nna1 | DRSC19404 | inactive |
| CG30373 | DRSC05081 | inactive |
| CG15252 | DRSC17981 | inactive |
| nerfin-2 | DRSC14547 | inactive |
| Ids | DRSC08222 | inactive |
| PIG-F | DRSC11069 | inactive |
| Noa36 | DRSC16761 | inactive |
| Nf-YA | DRSC10385 | inactive |
| NijC | DRSC14851 | inactive |
| Idh3g | DRSC15699 | inactive |
| CG13364 | DRSC17898 | inactive |
| CG13364 | DRSC21263 | inactive |
| CG15394 | DRSC00408 | inactive |
| Or30a | DRSC03385 | inactive |
| Jon65Aii | DRSC10665 | inactive |
| CG12861 | DRSC06201 | inactive |
| CG12861 | DRSC21960 | inactive |
| Klp67A + CG34456 | DRSC10420 | inactive |
| CG9308 | DRSC04539 | inactive |
| Prosbeta3 | DRSC16801 | inactive |
| mRpS29 | DRSC04398 | inactive |
| Obp19c | DRSC20528 | inactive |
| CG15128 | DRSC06550 | inactive |
| CG6870 | DRSC02998 | inactive |
| CG33301 | DRSC02778 | inactive |
| corn | DRSC11021 | inactive |
| corn | DRSC21943 | inactive |
| myo | DRSC17174 | inactive |
| CG43795 | DRSC04192 | inactive |
| CG43795 | DRSC04193 | inactive |
| CG43795 | DRSC04194 | inactive |
| CG43795 | DRSC04309 | inactive |
| CG43795 | DRSC04310 | inactive |
| CG43795 | DRSC22826 | inactive |
| miple1 | DRSC08722 | inactive |
| CG31659 | DRSC00760 | inactive |
| AANATL5 | DRSC05994 | inactive |
| CG15209 | DRSC19655 | inactive |
| CR18275 | DRSC18151 | inactive |
| Ack | DRSC08135 | inactive |
| Srp9 | DRSC10973 | inactive |
| Art1 | DRSC16063 | inactive |
| CG31808 | DRSC22962 | inactive |
| IFT46 | DRSC02462 | inactive |
| dnk | DRSC16933 | inactive |
| dpr20 | DRSC08265 | inactive |
